{
  "source": "patent US8591964B2",
  "about": "“Vaccinium species compositions” (Denali Biotechnologies, Inc., priority 2002, dated 2013)",
  "origin": "cited, not measured here",
  "settings": "value used to calculate ascorbate contribution to ORAC",
  "note": "At least one structure is not confirmed: it was looked up by name or label, or the drawing left a doubt.",
  "data": [
    {"smiles": "O=C1O[C@H]([C@@H](O)CO)C(O)=C1O", "note": "[ascorbate]", "values": [
      {"measurement": "ORAC value for ascorbate", "value": 5.6, "unit": "mmol TE/g"}
    ]}
  ]
}
